Measurements as given in paper doi:10.1101/526509.
Results are given in words; binding and its absence hold for the method and conditions named. Binding seen in cells or lysates may run through a third protein. Some results given as binding are weak or reduced against the parent protein; the word gives no strength. Where a sequence is shown, tags or fusion partners need not be part of it.

Amino acid sequences for entries named in this document (tags omitted).
UniProt P70569: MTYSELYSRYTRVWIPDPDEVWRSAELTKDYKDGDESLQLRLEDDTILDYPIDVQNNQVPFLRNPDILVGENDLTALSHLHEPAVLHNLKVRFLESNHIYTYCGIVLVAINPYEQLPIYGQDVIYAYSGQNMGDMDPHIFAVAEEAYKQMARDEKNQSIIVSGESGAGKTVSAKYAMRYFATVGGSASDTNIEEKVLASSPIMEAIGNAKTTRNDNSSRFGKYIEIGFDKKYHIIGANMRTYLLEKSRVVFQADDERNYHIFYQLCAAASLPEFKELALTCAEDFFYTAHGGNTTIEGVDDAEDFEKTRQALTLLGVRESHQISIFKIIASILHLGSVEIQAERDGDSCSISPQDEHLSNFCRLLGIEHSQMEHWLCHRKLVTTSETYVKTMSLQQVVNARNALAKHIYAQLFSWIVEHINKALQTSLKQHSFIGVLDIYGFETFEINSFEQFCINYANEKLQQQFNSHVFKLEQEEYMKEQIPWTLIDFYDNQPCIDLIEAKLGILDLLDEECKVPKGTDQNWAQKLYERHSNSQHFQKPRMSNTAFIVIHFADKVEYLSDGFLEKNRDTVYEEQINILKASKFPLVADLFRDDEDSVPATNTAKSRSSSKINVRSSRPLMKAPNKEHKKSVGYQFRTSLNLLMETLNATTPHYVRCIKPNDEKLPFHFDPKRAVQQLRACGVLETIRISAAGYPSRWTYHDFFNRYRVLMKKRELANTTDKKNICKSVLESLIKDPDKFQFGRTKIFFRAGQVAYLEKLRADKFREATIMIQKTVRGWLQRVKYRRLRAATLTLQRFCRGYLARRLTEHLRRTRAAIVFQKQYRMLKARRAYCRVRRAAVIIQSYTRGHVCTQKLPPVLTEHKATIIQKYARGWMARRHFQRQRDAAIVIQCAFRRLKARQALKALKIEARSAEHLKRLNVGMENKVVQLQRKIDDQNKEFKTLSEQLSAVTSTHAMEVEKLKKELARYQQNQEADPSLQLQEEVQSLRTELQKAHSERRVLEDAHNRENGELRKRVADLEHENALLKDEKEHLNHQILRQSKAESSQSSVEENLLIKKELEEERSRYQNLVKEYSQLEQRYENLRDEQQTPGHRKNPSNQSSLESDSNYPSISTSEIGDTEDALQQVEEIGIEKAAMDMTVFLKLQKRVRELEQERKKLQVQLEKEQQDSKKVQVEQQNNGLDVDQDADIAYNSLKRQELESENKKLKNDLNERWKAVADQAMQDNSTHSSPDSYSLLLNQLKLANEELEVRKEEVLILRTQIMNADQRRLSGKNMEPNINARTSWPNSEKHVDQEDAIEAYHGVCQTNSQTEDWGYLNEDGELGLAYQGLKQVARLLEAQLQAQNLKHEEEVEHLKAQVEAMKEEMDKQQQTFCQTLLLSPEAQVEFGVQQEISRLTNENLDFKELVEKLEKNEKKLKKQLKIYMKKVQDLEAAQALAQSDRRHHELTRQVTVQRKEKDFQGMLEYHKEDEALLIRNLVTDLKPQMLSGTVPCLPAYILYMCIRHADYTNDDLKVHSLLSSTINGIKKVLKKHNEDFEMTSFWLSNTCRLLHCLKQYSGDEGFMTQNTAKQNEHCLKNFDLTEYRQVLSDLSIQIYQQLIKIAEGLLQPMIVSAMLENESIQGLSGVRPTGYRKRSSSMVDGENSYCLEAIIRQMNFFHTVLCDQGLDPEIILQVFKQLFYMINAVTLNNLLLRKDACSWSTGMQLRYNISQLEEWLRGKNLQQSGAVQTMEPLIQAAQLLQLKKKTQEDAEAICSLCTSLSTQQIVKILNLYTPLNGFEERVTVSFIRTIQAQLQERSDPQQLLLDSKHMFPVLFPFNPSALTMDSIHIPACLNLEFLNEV
UniProt Q9QYF3: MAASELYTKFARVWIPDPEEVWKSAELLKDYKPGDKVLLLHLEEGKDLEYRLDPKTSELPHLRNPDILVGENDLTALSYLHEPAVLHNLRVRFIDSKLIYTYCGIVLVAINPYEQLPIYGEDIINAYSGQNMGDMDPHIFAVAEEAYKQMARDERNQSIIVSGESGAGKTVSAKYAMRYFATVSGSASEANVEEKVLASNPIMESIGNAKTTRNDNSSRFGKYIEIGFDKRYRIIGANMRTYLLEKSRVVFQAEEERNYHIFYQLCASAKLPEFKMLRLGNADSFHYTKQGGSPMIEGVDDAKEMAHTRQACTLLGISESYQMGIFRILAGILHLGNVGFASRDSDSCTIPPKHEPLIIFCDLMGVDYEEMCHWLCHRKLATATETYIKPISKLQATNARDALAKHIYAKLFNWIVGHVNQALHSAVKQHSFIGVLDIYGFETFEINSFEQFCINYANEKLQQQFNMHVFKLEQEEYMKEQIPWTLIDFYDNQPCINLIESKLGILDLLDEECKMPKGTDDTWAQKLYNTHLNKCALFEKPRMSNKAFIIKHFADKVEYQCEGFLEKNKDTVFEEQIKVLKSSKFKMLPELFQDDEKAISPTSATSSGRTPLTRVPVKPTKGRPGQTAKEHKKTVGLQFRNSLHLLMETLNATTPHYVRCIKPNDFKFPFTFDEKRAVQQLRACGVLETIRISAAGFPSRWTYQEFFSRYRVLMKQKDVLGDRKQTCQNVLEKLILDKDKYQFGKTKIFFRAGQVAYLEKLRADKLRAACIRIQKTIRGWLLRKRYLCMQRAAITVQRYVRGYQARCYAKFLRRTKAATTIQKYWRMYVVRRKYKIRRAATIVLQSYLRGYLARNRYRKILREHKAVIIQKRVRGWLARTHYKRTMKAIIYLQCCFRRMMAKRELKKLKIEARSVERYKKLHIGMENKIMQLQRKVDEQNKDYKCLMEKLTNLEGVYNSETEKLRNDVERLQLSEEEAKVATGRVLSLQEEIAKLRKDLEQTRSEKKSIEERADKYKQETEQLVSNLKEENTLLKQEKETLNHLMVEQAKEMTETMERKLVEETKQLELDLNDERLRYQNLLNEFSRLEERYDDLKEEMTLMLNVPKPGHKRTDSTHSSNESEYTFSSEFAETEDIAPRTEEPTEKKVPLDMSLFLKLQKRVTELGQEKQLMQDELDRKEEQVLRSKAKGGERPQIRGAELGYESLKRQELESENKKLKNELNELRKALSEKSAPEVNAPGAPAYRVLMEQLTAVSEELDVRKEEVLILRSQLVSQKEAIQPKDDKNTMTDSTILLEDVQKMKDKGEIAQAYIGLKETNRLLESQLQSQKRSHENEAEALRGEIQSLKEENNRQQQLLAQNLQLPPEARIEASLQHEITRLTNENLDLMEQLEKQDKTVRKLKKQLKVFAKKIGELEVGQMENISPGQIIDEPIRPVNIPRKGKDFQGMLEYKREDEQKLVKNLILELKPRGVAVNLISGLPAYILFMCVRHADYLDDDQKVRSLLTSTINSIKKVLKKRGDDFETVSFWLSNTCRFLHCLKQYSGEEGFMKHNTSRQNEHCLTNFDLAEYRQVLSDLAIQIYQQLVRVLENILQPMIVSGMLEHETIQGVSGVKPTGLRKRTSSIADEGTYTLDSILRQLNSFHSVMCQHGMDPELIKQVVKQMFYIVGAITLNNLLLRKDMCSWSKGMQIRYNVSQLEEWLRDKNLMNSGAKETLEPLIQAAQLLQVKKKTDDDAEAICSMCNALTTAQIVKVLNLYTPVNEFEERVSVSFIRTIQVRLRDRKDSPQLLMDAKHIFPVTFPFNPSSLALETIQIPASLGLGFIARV
UniProt Q63357: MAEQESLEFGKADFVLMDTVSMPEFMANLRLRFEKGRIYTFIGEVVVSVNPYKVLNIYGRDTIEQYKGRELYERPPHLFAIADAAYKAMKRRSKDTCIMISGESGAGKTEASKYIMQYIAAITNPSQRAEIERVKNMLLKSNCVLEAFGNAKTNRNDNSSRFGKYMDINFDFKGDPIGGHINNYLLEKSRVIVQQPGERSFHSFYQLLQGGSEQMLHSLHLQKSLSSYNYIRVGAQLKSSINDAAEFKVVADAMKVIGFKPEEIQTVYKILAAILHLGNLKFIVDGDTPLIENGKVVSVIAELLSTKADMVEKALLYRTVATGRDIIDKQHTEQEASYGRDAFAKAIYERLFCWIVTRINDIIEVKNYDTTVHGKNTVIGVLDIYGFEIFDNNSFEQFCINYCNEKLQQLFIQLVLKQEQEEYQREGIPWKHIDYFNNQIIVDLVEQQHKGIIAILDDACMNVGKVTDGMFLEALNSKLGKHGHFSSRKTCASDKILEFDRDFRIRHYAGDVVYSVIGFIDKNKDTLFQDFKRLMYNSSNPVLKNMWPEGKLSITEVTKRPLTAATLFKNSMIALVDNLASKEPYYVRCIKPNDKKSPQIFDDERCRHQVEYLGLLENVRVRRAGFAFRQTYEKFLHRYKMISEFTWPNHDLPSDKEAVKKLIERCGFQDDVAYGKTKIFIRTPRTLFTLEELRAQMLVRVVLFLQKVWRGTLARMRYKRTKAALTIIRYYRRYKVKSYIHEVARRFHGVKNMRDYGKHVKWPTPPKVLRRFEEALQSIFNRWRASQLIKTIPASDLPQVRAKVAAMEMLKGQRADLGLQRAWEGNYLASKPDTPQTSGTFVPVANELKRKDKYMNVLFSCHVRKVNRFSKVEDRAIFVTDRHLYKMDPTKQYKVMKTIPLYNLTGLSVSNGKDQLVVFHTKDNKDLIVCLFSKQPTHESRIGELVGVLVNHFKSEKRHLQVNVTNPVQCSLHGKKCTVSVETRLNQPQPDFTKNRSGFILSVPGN

molecular target: T1, bio-GFP-synaptopodin (mouse) (UniProt Q8CC35); experiment: pull-down
T1 sequence (chain, biotin (biotinylated; HA-BirA co-expressed)): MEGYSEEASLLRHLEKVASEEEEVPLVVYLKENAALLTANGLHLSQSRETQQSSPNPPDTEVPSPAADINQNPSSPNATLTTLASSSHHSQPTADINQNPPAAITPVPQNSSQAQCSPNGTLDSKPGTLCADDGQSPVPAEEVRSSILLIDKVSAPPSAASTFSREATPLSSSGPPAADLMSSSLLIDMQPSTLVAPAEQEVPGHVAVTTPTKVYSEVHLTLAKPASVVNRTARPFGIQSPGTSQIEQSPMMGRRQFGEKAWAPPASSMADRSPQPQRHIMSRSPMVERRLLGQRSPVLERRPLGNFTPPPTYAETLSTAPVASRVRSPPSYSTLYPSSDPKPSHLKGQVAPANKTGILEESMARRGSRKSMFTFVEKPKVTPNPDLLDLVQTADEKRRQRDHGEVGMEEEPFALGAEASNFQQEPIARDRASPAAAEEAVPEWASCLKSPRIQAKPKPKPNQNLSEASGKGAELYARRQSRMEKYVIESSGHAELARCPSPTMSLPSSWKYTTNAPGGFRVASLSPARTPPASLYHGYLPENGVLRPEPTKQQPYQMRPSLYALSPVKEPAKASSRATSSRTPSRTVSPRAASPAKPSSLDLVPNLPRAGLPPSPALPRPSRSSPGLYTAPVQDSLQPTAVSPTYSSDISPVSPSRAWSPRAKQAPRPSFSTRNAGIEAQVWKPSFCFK

binding, binds:
myosin Vb (from UniProt P70569 1-1846)
myosin Va (from UniProt Q9QYF3 1-1828)
myosin Id (from UniProt Q63357 1-1006)
